These are yes or no findings as the source states them, for the method shown. In cells and extracts the contact can be indirect. A yes stands for co-enrichment or nearness to the bait. Other partners may have been found. Tags and fused reporters may be left off the sequences shown.
Key:
[1] = molecular target: T1, LZTR1-mini-TurboID-HA (LZTR1 fused to biotin ligase tagged with HA) (UniProt Q8N653); assay: proximity labelling; LZTR1-miniTurbo-HA or GFP-TurboID (control) induced with doxycycline in YUHIMO, YUHEF and YUSIK melanoma cells; biotin 50 uM; streptavidin magnetic beads; in-gel trypsin digestion, LC-MS/MS with label-free quantitation; enriched over control at p < 0.05; three biological replicates
T1 sequence: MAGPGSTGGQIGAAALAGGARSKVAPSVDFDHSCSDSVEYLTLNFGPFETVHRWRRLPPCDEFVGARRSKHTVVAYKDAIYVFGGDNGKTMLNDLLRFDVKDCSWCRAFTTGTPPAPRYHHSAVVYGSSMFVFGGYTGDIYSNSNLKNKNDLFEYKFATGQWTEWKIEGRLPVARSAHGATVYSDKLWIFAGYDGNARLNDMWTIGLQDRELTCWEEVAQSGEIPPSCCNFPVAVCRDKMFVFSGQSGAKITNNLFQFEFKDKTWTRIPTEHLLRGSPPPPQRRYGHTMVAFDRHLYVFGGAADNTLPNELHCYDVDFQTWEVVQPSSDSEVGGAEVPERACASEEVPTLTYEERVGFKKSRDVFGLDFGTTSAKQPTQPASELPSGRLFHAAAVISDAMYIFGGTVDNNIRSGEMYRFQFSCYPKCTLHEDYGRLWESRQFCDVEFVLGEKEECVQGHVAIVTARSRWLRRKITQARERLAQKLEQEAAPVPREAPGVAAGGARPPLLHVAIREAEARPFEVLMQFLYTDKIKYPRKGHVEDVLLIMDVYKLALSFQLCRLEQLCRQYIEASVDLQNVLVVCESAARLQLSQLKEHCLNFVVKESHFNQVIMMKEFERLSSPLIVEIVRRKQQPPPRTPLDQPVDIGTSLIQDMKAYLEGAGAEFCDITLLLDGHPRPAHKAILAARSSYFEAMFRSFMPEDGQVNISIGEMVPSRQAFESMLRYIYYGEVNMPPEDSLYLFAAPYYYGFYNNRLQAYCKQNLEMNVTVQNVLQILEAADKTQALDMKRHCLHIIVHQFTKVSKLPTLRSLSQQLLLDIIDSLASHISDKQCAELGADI

[2] = molecular target: T1, LZTR1-mini-TurboID-HA (LZTR1 fused to biotin ligase tagged with HA); assay: proximity labelling; LZTR1-TurboID or GFP-TurboID in melanoma cells with or without doxycycline; biotin for 24 h or for 2 and 18 h; streptavidin bead-bound proteins and whole cell lysates probed by Western blot

B1: GOLGA3 (golgin A3) (protein, UniProt Q08378 1-1498)
chain: MDGASAEQDGLQEDRSHSGPSSLPEAPLKPPGPLVPPDQQDKVQCAEVNRASTEGESPDGPGQGGLCQNGPTPPFPDPPSSLDPTTSPVGPDASPGVAGFHDNLRKSQGTSAEGSVRKEALQSLRLSLPMQETQLCSTDSPLPLEKEEQVRLQARKWLEEQLKQYRVKRQQERSSQPATKTRLFSTLDPELMLNPENLPRASTLAMTKEYSFLRTSVPRGPKVGSLGLPAHPREKKTSKSSKIRSLADYRTEDSNAGNSGGNVPAPDSTKGSLKQNRSSAASVVSEISLSPDTDDRLENTSLAGDSVSEVDGNDSDSSSYSSASTRGTYGILSKTVGTQDTPYMVNGQEIPADTLGQFPSIKDVLQAAAAEHQDQGQEVNGEVRSRRDSICSSVSLESSAAETQEEMLQVLKEKMRLEGQLEALSLEASQALKEKAELQAQLAALSTKLQAQVECSHSSQQRQDSLSSEVDTLKQSCWDLERAMTDLQNMLEAKNASLASSNNDLQVAEEQYQRLMAKVEDMQRSMLSKDNTVHDLRQQMTALQSQLQQVQLERTTLTSKLKASQAEISSLQSVRQWYQQQLALAQEARVRLQGEMAHIQVGQMTQAGLLEHLKLENVSLSQQLTETQHRSMKEKGRIAAQLQGIEADMLDQEAAFMQIQEAKTMVEEDLQRRLEEFEGERERLQRMADSAASLEQQLEQVKLTLLQRDQQLEALQQEHLDLMKQLTLTQEALQSREQSLDALQTHYDELQARLGELQGEAASREDTICLLQNEKIILEAALQAAKSGKEELDRGARRLEEGTEETSETLEKLREELAIKSGQVEHLQQETAALKKQMQKIKEQFLQQKVMVEAYRRDATSKDQLISELKATRKRLDSELKELRQELMQVHGEKRTAEAELSRLHREVAQVRQHMADLEGHLQSAQKERDEMETHLQSLQFDKEQMVAVTEANEALKKQIEELQQEARKAITEQKQKMRRLGSDLTSAQKEMKTKHKAYENAVGILSRRLQEALAAKEAADAELGQLRAQGGSSDSSLALHERIQALEAELQAVSHSKTLLEKELQEVIALTSQELEESREKVLELEDELQESRGFRKKIKRLEESNKKLALELEHEKGKLTGLGQSNAALREHNSILETALAKREADLVQLNLQVQAVLQRKEEEDRQMKHLVQALQASLEKEKEKVNSLKEQVAAAKVEAGHNRRHFKAASLELSEVKKELQAKEHLVQKLQAEADDLQIREGKHSQEIAQFQAELAEARAQLQLLQKQLDEQLSKQPVGNQEMENLKWEVDQKEREIQSLKQQLDLTEQQGRKELEGLQQLLQNVKSELEMAQEDLSMTQKDKFMLQAKVSELKNNMKTLLQQNQQLKLDLRRGAAKTRKEPKGEASSSNPATPIKIPDCPVPASLLEELLRPPPAVSKEPLKNLNSCLQQLKQEMDSLQRQMEEHALTVHESLSSWTPLEPATASPVPPGGHAGPRGDPQRHSQSRASKEGPGE
Q: How did the binding [1] turn out when B1 was run?
A: binds

Q: And the binding [2]?
A: binds

B2: TRIM24 (protein, UniProt O15164 1-1050)
chain: MEVAVEKAVAAAAAASAAASGGPSAAPSGENEAESRQGPDSERGGEAARLNLLDTCAVCHQNIQSRAPKLLPCLHSFCQRCLPAPQRYLMLPAPMLGSAETPPPVPAPGSPVSGSSPFATQVGVIRCPVCSQECAERHIIDNFFVKDTTEVPSSTVEKSNQVCTSCEDNAEANGFCVECVEWLCKTCIRAHQRVKFTKDHTVRQKEEVSPEAVGVTSQRPVFCPFHKKEQLKLYCETCDKLTCRDCQLLEHKEHRYQFIEEAFQNQKVIIDTLITKLMEKTKYIKFTGNQIQNRIIEVNQNQKQVEQDIKVAIFTLMVEINKKGKALLHQLESLAKDHRMKLMQQQQEVAGLSKQLEHVMHFSKWAVSSGSSTALLYSKRLITYRLRHLLRARCDASPVTNNTIQFHCDPSFWAQNIINLGSLVIEDKESQPQMPKQNPVVEQNSQPPSGLSSNQLSKFPTQISLAQLRLQHMQQQVMAQRQQVQRRPAPVGLPNPRMQGPIQQPSISHQQPPPRLINFQNHSPKPNGPVLPPHPQQLRYPPNQNIPRQAIKPNPLQMAFLAQQAIKQWQISSGQGTPSTTNSTSSTPSSPTITSAAGYDGKAFGSPMIDLSSPVGGSYNLPSLPDIDCSSTIMLDNIVRKDTNIDHGQPRPPSNRTVQSPNSSVPSPGLAGPVTMTSVHPPIRSPSASSVGSRGSSGSSSKPAGADSTHKVPVVMLEPIRIKQENSGPPENYDFPVVIVKQESDEESRPQNANYPRSILTSLLLNSSQSSTSEETVLRSDAPDSTGDQPGLHQDNSSNGKSEWLDPSQKSPLHVGETRKEDDPNEDWCAVCQNGGELLCCEKCPKVFHLSCHVPTLTNFPSGEWICTFCRDLSKPEVEYDCDAPSHNSEKKKTEGLVKLTPIDKRKCERLLLFLYCHEMSLAFQDPVPLTVPDYYKIIKNPMDLSTIKKRLQEDYSMYSKPEDFVADFRLIFQNCAEFNEPDSEVANAGIKLENYFEELLKNLYPEKRFPKPEFRNESEDNKFSDDSDDDFVQPRKKRLKSIEERQLLK
Q: For B2, which binding [1] is on record?
A: binds

B3: VCPIP1 (Valosin Containing Protein Interacting Protein 1) (protein, UniProt Q96JH7 1-1222)
chain: MSQPPPPPPPLPPPPPPPEAPQTPSSLASAAASGGLLKRRDRRILSGSCPDPKCQARLFFPASGSVSIECTECGQRHEQQQLLGVEEVTDPDVVLHNLLRNALLGVTGAPKKNTELVKVMGLSNYHCKLLSPILARYGMDKQTGRAKLLRDMNQGELFDCALLGDRAFLIEPEHVNTVGYGKDRSGSLLYLHDTLEDIKRANKSQECLIPVHVDGDGHCLVHAVSRALVGRELFWHALRENLKQHFQQHLARYQALFHDFIDAAEWEDIINECDPLFVPPEGVPLGLRNIHIFGLANVLHRPIILLDSLSGMRSSGDYSATFLPGLIPAEKCTGKDGHLNKPICIAWSSSGRNHYIPLVGIKGAALPKLPMNLLPKAWGVPQDLIKKYIKLEEDGGCVIGGDRSLQDKYLLRLVAAMEEVFMDKHGIHPSLVADVHQYFYRRTGVIGVQPEEVTAAAKKAVMDNRLHKCLLCGALSELHVPPEWLAPGGKLYNLAKSTHGQLRTDKNYSFPLNNLVCSYDSVKDVLVPDYGMSNLTACNWCHGTSVRKVRGDGSIVYLDGDRTNSRSTGGKCGCGFKHFWDGKEYDNLPEAFPITLEWGGRVVRETVYWFQYESDSSLNSNVYDVAMKLVTKHFPGEFGSEILVQKVVHTILHQTAKKNPDDYTPVNIDGAHAQRVGDVQGQESESQLPTKIILTGQKTKTLHKEELNMSKTERTIQQNITEQASVMQKRKTEKLKQEQKGQPRTVSPSTIRDGPSSAPATPTKAPYSPTTSKEKKIRITTNDGRQSMVTLKSSTTFFELQESIAREFNIPPYLQCIRYGFPPKELMPPQAGMEKEPVPLQHGDRITIEILKSKAEGGQSAAAHSAHTVKQEDIAVTGKLSSKELQEQAEKEMYSLCLLATLMGEDVWSYAKGLPHMFQQGGVFYSIMKKTMGMADGKHCTFPHLPGKTFVYNASEDRLELCVDAAGHFPIGPDVEDLVKEAVSQVRAEATTRSRESSPSHGLLKLGSGGVVKKKSEQLHNVTAFQGKGHSLGTASGNPHLDPRARETSVVRKHNTGTDFSNSSTKTEPSVFTASSSNSELIRIAPGVVTMRDGRQLDPDLVEAQRKKLQEMVSSIQASMDRHLRDQSTEQSPSDLPQRKTEVVSSSAKSGSLQTGLPESFPLTGGTENLNTETTDGCVADALGAAFATRSKAQRGNSVEELEEMDSQDAEMTNTTEPMDHS
Q: With B3 as the binder, how does the binding [1] read?
A: binds

Source: PMC12500468
